Test results published in paper PMC12583530.
These are yes or no findings as the source states them, for the method shown. In cells and extracts the contact can be indirect. Some entries that bind do so weakly or less than the wild type.

Experiments:
[1] = molecular target: T1, PGK1 WT, overexpressed (human) (UniProt P00558); test: co-IP; lysates of SGC7901 cells stably overexpressing PGK1 (control or TRIM8 shRNA; PGK1 IP) or transfected with PGK1 WT or K146R in the presence of TRIM8; Western blot for ACAT1
T1 sequence: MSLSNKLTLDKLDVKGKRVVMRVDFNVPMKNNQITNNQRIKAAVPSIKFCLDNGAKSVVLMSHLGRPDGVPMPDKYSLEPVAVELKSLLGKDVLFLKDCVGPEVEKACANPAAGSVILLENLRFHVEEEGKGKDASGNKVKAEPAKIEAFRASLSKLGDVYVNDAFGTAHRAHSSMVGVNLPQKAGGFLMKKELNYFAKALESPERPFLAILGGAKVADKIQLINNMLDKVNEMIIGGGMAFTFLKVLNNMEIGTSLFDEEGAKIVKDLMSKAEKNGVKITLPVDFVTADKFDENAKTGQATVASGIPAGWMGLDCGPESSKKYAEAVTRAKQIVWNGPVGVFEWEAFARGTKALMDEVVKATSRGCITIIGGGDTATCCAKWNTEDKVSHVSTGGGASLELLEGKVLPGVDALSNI

PGK1 K146R (human) = molecular target: T2, PGK1 K146R (human) (UniProt P00558); test: as above
T2 sequence: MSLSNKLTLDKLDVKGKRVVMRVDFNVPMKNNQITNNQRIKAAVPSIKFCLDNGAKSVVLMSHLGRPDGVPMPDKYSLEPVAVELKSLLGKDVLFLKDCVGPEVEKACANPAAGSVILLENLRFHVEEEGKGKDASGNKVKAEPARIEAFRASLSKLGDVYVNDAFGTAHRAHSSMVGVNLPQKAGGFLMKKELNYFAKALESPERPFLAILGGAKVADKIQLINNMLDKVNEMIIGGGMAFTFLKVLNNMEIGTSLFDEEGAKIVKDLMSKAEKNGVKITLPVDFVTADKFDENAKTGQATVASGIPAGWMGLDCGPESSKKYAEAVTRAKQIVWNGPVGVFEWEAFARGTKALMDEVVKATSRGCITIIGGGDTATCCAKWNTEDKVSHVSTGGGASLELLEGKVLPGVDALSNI

[2] = molecular target: T3, endogenous PGK1 (phosphoglycerate kinase 1) (human (endogenous in SGC7901 and BGC823)) (UniProt P00558); test: co-IP; endogenous proteins from whole cell lysates (SGC7901, BGC823); lysis buffer 50 mM Tris, 150 mM NaCl, 2 mM EDTA, 0.5% Triton X-100; antibody-conjugated beads at 4 °C overnight; Western blot; for PGK1-ACAT1 also in SGC7901 cells with TRIM8 shRNA or stable TRIM8 overexpression
T3 sequence: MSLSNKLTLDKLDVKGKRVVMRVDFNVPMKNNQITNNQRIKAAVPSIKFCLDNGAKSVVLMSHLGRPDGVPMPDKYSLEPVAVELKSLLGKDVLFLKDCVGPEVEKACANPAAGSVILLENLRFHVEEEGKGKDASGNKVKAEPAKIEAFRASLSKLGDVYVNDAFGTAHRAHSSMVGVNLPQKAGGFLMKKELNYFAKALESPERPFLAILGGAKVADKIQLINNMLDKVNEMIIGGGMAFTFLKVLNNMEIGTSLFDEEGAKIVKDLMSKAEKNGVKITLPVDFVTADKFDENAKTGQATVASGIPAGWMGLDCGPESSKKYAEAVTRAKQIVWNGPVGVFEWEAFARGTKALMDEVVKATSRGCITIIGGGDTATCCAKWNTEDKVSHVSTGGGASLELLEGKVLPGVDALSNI

B1: endogenous ACAT1 (enzyme, UniProt P24752 34-427)
chain: VSKPTLKEVVIVSATRTPIGSFLGSLSLLPATKLGSIAIQGAIEKAGIPKEEVKEAYMGNVLQGGEGQAPTRQAVLGAGLPISTPCTTINKVCASGMKAIMMASQSLMCGHQDVMVAGGMESMSNVPYVMNRGSTPYGGVKLEDLIVKDGLTDVYNKIHMGSCAENTAKKLNIARNEQDAYAINSYTRSKAAWEAGKFGNEVIPVTVTVKGQPDVVVKEDEEYKRVDFSKVPKLKTVFQKENGTVTAANASTLNDGAAALVLMTADAAKRLNVTPLARIVAFADAAVEPIDFPIAPVYAASMVLKDVGLKKEDIAMWEVNEAFSLVVLANIKMLEIDPQKVNINGGAVSLGHPIGMSGARIVGHLTHALKQGEYGLASICNGGGGASAMLIQKL
binding [1]: binds
binding (PGK1 K146R (human)): no binding
binding [2]: binds
